Results published in the supplement of paper PMC7125110.
± gives the standard error. Many entries were measured with a wide error.

B1: glmS ribozyme (parent)
chain: AUAAAAGCGCCAGAACUACAGAAAUGUAGUUGACGAGGAGGAGGUUUAUCGAAUUUUCGGCGGAUGCCUCCAAA

Variants of: B1
Experiment: self-cleavage kobs at 2500 uM GlcN6P; higher = faster cleavage; RNA array
Conditions: with glucosamine-6-phosphate
Summary of the method: (§1)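 The measurements used barcoded ribozyme variants on sequenced MiSeq chips, transcribed in situ by E. coli RNA polymerase and tracked at 37 °C with a hybridised Cy3 probe. Glucosamine-6-phosphate, 40 μM to 10 mM in HEPES/KCl/Mg(OAc)2 buffer, was flowed in while tiles were imaged over ~14 h. Baseline-normalised signals, also normalised to non-cleaving reference variants, gave per-tile medians that were fit to one- or two-exponential decays for kobs. kcat and KM resulted from weighted Michaelis–Menten fits across concentrations.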

Row | Variant | self-cleavage kobs at 2500 uM GlcN6P [s⁻¹]
1 | AUAAAAGCGCCAGAUCUACAGAAAUGUAGUUGACGAGGAGGAGGUUUAUCGAAUUUUCGGCGGACGGCUCCAAA | 2.89e-05 ± 2.3e-05
2 | AUAAAAGCGCCAGUACUACAGAAAUGUAGUUGACGAGGAGGAGGUUUAUAGAAGUUUCGGCAGAUGCUUCCAAA | 3.18e-05 ± 1.8e-05
3 | AUAAAAGCGCCAGCAAUACAGAAAUGUAGUUGACGAGGAGGAGGUUUAUCGAAUUUUCGGCGGAUGCCUACAAA | 4.63e-05 ± 2.7e-05
4 | AUAAAAGCGCCAGACCUACAGAAAUGUAGUUGACGAGGAGGAGGUUUAUCGAAUUUUCGGGGGAUGCUUCCAAA | 2.59e-05 ± 2.6e-05
5 | AUAAAAGCGCCAGAAUUACAGAAAUGUAGUUGUCGAGGAGGAGGUUUAUCGAAUUUUCGGCGGAUGACUCCAAA | 2.37e-05 ± 1.7e-05
6 | AUAAAAGCGCCACAACUACAGAAAUGUAGUUGACGAGGAGGAGGUUUAUCGAAUGUUGGGCGGAUGCCUCCAAA | 4.13e-05 ± 2.3e-05
7 | AUAAAAGCGCCAGAUCUACAGAAAUGUAGUUGACGAGGAGGAGGUUUAUCGAAUUUACGGCGGAUGCCUCCAAA | 2.17e-05 ± 1.2e-05
8 | AUAAAAGCGCCAGGACUACAGAAAUGUAGUUGACGAGGAGGAGGUUUAUCGAAUUUUCGGCGGAUGCCUUCAAA | 0.0417 ± 0.024
9 | AUAAAAGCGCCAGAAUUACAGAAAUGUAGUUGACGAGGAGGUGGUUUAUCGAUUUUUCGGCGGAUGCCUCCAAA | 2.97e-05 ± 1.7e-05
10 | AUAAAAGCGCCAGAAUUACAGAAAUGUAGUAGACGAGGAGGAGGAUUAUCGAAUUUUCGGCGGAUGCCUCCAAA | 0.0343 ± 0.018
11 | AUAAAAGCGCCAGAUCUACAGAAAUGUAGUUGACGAGGAGGAGGUUUAUCGAAUGUUUGGCGGAUGCCUCCAAA | 3.41e-05 ± 2.3e-05
12 | AUAAAAGCGCCAUAACUACAGAAAUGUAGUUGACGAGGAGGAGGUUUAUCGAAUUUUCGGGGGAUGCCUUCAAA | 9.54e-05 ± 5.5e-05
13 | AUAAAAGCGCCAGAAAUACAGAAAUGUAGUUGACGAGGAGGAGGUUUAUCGAAUUUUCUGCGGAUGCGUCCAAA | 3.73e-05 ± 2.4e-05
14 | AUAAAAGCGCCAGUACUACAGAAAUGUACUUGACGAGGAGGAGGUUUAUCGAAUUUUCGGCGGAUGCCUCCAAA | 1.87e-05 ± 1.6e-05
15 | AUAAAAGCGCCAGUACUACAGAAAUGUAGUUGACGAGGAGGAGGUUGAUCGGAUUUUCGGCGGGUGCCUCCAAA | 3.37e-05 ± 1.9e-05
16 | AUAAAAGCGCCAGACCUACAGAAAUGUAGUUGACGAGGAGGAGGUUUAUCGAAUUUUCGGCGGAUGCAUCCAAA | 3.46e-05 ± 1.8e-05
17 | AUAAAAGCGCCAGGACUACAGAAAUGUAGUUGACGAGGAGGAGGUUUUUCGAAUUUUCGGCGGAUGCCUACAAA | 4.6e-05 ± 2.5e-05
18 | AUAAAAGCGCCAGAAAUACAGAAAUGUAGUUGACGAGGAGGAGGUUUAUCGAAUUUUUGGCGGAUGCCUCUAAA | 3.37e-05 ± 2.1e-05

Part of the list above, tab-delimited:
Row	Variant	self-cleavage kobs at 2500 uM GlcN6P [s⁻¹]
16	AUAAAAGCGCCAGACCUACAGAAAUGUAGUUGACGAGGAGGAGGUUUAUCGAAUUUUCGGCGGAUGCAUCCAAA	3.46e-05 ± 1.8e-05
17	AUAAAAGCGCCAGGACUACAGAAAUGUAGUUGACGAGGAGGAGGUUUUUCGAAUUUUCGGCGGAUGCCUACAAA	4.6e-05 ± 2.5e-05

More results.

Row | Variant | self-cleavage kobs at 2500 uM GlcN6P [s⁻¹]
19 | AUAAAAGCGCCAGCACUACAGAAAUGUAGUGUACGAGGAGGAGGUUUAUCGAAUUUUCGGCGGAUGCCUGCAAA | 5.39e-05 ± 2.8e-05
20 | AUAAAAGCGCCAGACCUACAGAAAUGUAGUUUAUGAGGAGGAGGUCUAUAGAAUGUUCGGCGGAUGCCUCCAAA | 0.000152 ± 9.2e-05
21 | AUAAAAGCGCCAGCACUACAGAAAUGUAGUUGACGAGGAGGAGAAUUAUCGAAUUUUCGGCGGAUGCCUCCAAA | 3.16e-05 ± 2.4e-05
22 | AUAAAAGCGCCAGCACUACAGAAAUGUAGUUGACGAUGAGGAGGUUUAUCGAAUUUUCGGCGGAUACGUCCAAA | 3.48e-05 ± 2.8e-05
23 | AUAAAAGCGCCAGAAUUACAGAAAUGUAGUUGACGAGGAGGAGGUUUAUGGAAUUUUCGGCGGAUGCCUCCAAA | 0.000799 ± 0.00041
24 | AUAAAAGCGCCAGAAGUACAGAAAUGUAGUUGACGAGGAGGAGGUUUAUUGAAUUUUCGGCGGAUGCGUCCAAA | 4.07e-05 ± 2.2e-05
25 | AUAAAAGCGCCAGAGCUACAGAAAUGUAGUUGACGAGGAGGAGGUUUAUCGAAUUUUCGGCGGAUGCCUGCAAA | 0.00587 ± 0.0034
26 | AUAAAAGCGCCAGAACUAAAGAAAUGUAGUUGACGAGGAGGAAGUUUAUCGAAUUUUCGGCGGAUGCCUCCAAA | 2.99e-05 ± 2.4e-05
27 | AUAAAAGCGCCAGUUCUACAGAAAUGUAAUUGACGAGGAGGAGGUUUAUCGAAUUUUCGGCGGAUGCCUCCAAA | 2.46e-05 ± 2.1e-05
28 | AUAAAAGCGCCAGCACUACAGAAAUGUAGUUGACGAGGCGUAGGUUUAUCGAAUUUUCGGCGGAUGCCUCCAAA | 0.000153 ± 0.00011
29 | AUAAAAGCGCCAGAAAUACAGAAAUGUAGUUAACGAGGAGGAGGUUUAUCGAAUUUUCGGCGGAUGCCUCAAAA | 2.95e-05 ± 2.6e-05
30 | AUAAAAGCGCCAGAUCUACAGAAAUGUAGUUGACGAGGAGGAGGUUUAUCGAUUUUCCGGCGGAUGCCUCCAAA | 3.44e-05 ± 3e-05
31 | AUAAAAGCGCCAGAAUUACAGAAAUGUAGUUGACGAGGAGGUGGUUUAUCGAAUUUUCGGCGGAUGCCUCAAAA | 3.51e-05 ± 2.3e-05
32 | AUAAAAGCGCCAGGACUACAGAAAUGUAGGUGACGAGGAGGAGGUUUAUCGAAUUUUCGGCGGAUGCCUUCAAA | 0.011 ± 0.0076
33 | AUAAAAGCGCCAGACGUACAGAAAUGUAGUUGACGAAGAGGAGGUUUAUCGAAUUUUCGGCGGAUGCCUCUAAA | 1.97e-05 ± 1.3e-05
34 | AUAAAAGCGCCAGAACUACAGAAAUUUAGUUGACGAGGAGGAGGUUUAUCGAAUUUUCGACGGAUGCAUCCAAA | 3.78e-05 ± 2.9e-05
35 | AUAAAAGCGCCAUAACUACAGAAAUGUAGUUGACGAGGAGGAGGUUUAUCGUAUUUUCGGCGGAUGCGUCCAAA | 4.22e-05 ± 3.1e-05
36 | AUAAAAGCGCCAGAACUAAAGAAAUGUAGUUCACGAGGUGGAGGUUUAUCGAAUUUUCGGCGGAUGCCUCCAAA | 2.55e-05 ± 1.6e-05

Variants of: B1
Experiment: self-cleavage kobs at 10000 uM GlcN6P; higher = faster cleavage; RNA array
Conditions: with glucosamine-6-phosphate
Summary of the method: as §1

Row | Variant | self-cleavage kobs at 10000 uM GlcN6P [s⁻¹]
37 | AUAAAAGCGCCAGAAUUACAGAAAUGUAGUUGACGAGGAGGAGGUUUAUGGAAUUUUCGGCGGAUGCCUCCAAA | 2e-05 ± 1.6e-05
